Test results taken from patent US10959428B2, “Hematophagous arthropod repellent composition” (WOOJUNG BIO INC., priority 2017, dated 2021).
Some results were stated once for a whole list of compounds, not compound by compound.

System: adult Aedes aegypti
Test: cage-in-arm test, complete protection time (CPT)
Format: in vivo
Conditions: 4 mg, listed as 3,4-dimethoxybenzaldehyde
Method: For determining the repellency of prepared samples against adults of Aedes aegypti and Aedes albopicus, a cage-in-arm test was carried out as a method for exposure to skin. Namely, on a back of the hand of a rubber glove, a hole with diameter of 5 cm was created, and, onto an exposed back of the testees, various samples prepared by dissolution in 100 μl of ethanol were applied, and then the skin test was carried out. The testees were healthy males between the ages of 21 and 40. The control group was treated with 100 μl of ethanol only. Female adults (5 to 8 day old) of Aedes aegypti or Aedes albopicus (250 to 300 mosquitoes) were added to a cage for growing adult mosquitoes (25×25×25 cm^3), and adapted to the indoor conditions for 12 to 24 hours before starting the test. When the upper arm of the control group is exposed for 1 minute and at least 6 mosquitoes sit on the upper arm or show a bloodsucking behavior, it was determined as sufficient biting pressure, and then the repellency test was carried out. […] Furthermore, for obtaining the repellency with regard to concentration, exposure was made for a constant time period regardless of the above and the repellency was calculated by using the following formula. […]

With `COc1ccc(C=O)cc1OC` [3,4-Dimethoxybenzaldehyde, 3,4-dimethoxybenzaldehyde] the CPT was “more than 1 hour”.
